The nature of the data set: Caco-2 cell permeability study. It counts as in vitro ADME. To be noted: human, pH 7.4, Caco-2, 5 μM. From the text: One of the physicochemical quantities that mirrors the interaction of a compound with the cell membrane is permeability. Traditionally, measuring permeability with the PAMPA model provides estimates of passive permeability across a model membrane. […] Therefore, we measure the cell permeability of the six compounds using Caco-2 cells, so that the apical to basolateral (A to B) and basolateral to apical (B to A) permeabilities, and thereby the efflux ratio, can be determined. Three commercial drugs (Table 2) are used as standard compounds to establish and validate our in-house assay.
For Caco-2 cells (originally obtained from the American Type Culture Collection; ATCC, Manassas, VA, USA), 50 μL and […] of cell culture medium are added to each well of the Transwell insert and reservoir, respectively. And then the HTS transwell plates are incubated at 37 °C, 5% CO2 for 1 h before cell seeding. Caco-2 cells are diluted to 6.86 × 10^5 cells/mL with culture medium and 50 μL of cell suspension is dispensed into the filter well of the 96-well HTS Transwell plate. Cells are cultivated for 14–18 days in a cell culture incubator at 37 °C, 5% CO2, 95% relative humidity. […]
dilution factor is changed according to the log D value and the LC-MS signal response. The samples are evaluated by LC-MS/MS analysis. […]
For orientation: Passage across Caco-2 layers is used to estimate intestinal permeability.

For orientation: Papp A→B means the apparent permeability from the apical to the basolateral side of a cell layer. A low value points to slow passage. In general, Papp B→A refers to how fast a substance crosses the layer from the basolateral side.

For the setting “apical to basolateral”, `CC(C)NCC(O)COc1ccc(CC(N)=O)cc1` (centres unmarked) [Atenolol, reference compound] yielded a Papp A→B at 2 h, 5 µM of 0.52 ×10⁻⁶ cm/s. Under “basolateral to apical”, this compound had a Papp B→A at 2 h, 5 µM of 0.67 ×10⁻⁶ cm/s.

Values taken from PMC12843137, “Fine-Tuning Side Chain Substitutions: Impacts on the Lipophilicity–Solubility–Permeability Interplay in Macrocyclic Peptides” (Marine Drugs, 2025).
